Experimental data taken from publication PMC12004613.
These are yes or no findings as the source states them, for the method shown. In cells and extracts the contact can be indirect. A yes stands for co-enrichment or nearness to the bait. Other partners may have been found.

How the values were obtained:
[1] = target: USUV NS4A fused to the biotin ligase TurboID (TurboID-NS4A) (Usutu virus (Netherlands 2016 strain)); assay: proximity labelling; TurboID fusions of NS4A transfected separately into 293T cells; 50 uM biotin for 1 h at 24 hpt; lysis in 0.5% NP-40 buffer; biotinylated proteins precipitated with NeutrAvidin agarose, washed with 1% SDS; mass spectrometry; compared with empty vector
[2] = target: USUV NS4A fused to the biotin ligase TurboID (NS4A-TurboID) (Usutu virus (Netherlands 2016 strain)); assay: as above

B1: TMEM41B, endogenous in 293T cells (protein, UniProt Q5BJD5 1-291)
chain: MAKGRVAERSQLGAHHTTPVGDGAAGTRGLAAPGSRDHQKEKSWVEAGSARMSLLILVSIFLSAAFVMFLVYKNFPQLSEEERVNMKVPRDMDDAKALGKVLSKYKDTFYVQVLVAYFATYIFLQTFAIPGSIFLSILSGFLYPFPLALFLVCLCSGLGASFCYMLSYLVGRPVVYKYLTEKAVKWSQQVERHREHLINYIIFLRITPFLPNWFINITSPVINVPLKVFFIGTFLGVAPPSFVAIKAGTTLYQLTTAGEAVSWNSIFILMILAVLSILPAIFQKKLKQKFE
modifications: biotinylated by TurboID (sites not given)
binding [1]: binds | binding [2]: binds
